± gives the standard deviation of the averaged measurements. Most entries show no effect beyond the scatter of the controls.
Experiments:
Assay in all cases: level (log10 ratio to DMSO vehicle control); higher = higher biomarker level / cell amount than vehicle control
[1] = compound: C=C(C)C(=O)OCCC(F)(F)C(F)(F)C(F)(F)C(F)(F)C(F)(C(F)(F)F)C(F)(F)F [(Perfluoro-5-methylhexyl)ethyl 2-methylprop-2-enoate]; details: in DMSO
Protocol: (§1)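 BioMAP Diversity Plus panel of 12 human primary cell co-culture systems (3C, 4H, LPS, SAg, BT, BF4T, BE3C, CASM3C, HDF3CGF, KF3CT, MyoF, Mphg). Compounds were added 1 h before stimulation and left for 24 h (MyoF 48 h; BT 72 h for soluble read-outs or 6 d for IgG). Biomarkers were read by ELISA, cytotoxicity by SRB, PBMC viability and proliferation by Alamar Blue. Each well value was divided by the mean of 8 DMSO control wells on the same plate and log10 transformed; duplicate blinded samples were tested at 4 concentrations.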

[2] = compound: OCCC(F)(F)C(F)(F)C(F)(F)C(F)(F)F [4:2 Fluorotelomer alcohol]; details: 2200 nM; in DMSO
Protocol: as §1

[3] = compound: C=C(C)C(=O)OCCC(F)(F)C(F)(F)C(F)(F)C(F)(F)C(F)(F)C(F)(F)C(F)(F)C(F)(F)F [8:2 Fluorotelomer methacrylate]; details: in DMSO
Protocol: as §1

Perfluoropinacol = compound: OC(C(F)(F)F)(C(F)(F)F)C(O)(C(F)(F)F)C(F)(F)F [Perfluoropinacol]; details: in DMSO
Protocol: as §1

Tetrafluorosuccinic acid = compound: O=C(O)C(F)(F)C(F)(F)C(=O)O [Tetrafluorosuccinic acid]; details: 2200 nM; in DMSO
Protocol: as §1

Octafluoroadipamide = compound: NC(=O)C(F)(F)C(F)(F)C(F)(F)C(F)(F)C(N)=O [Octafluoroadipamide]; details: 2200 nM; in DMSO
Protocol: as §1

[4] = compound: O=C(O)CCC(F)(F)C(F)(F)C(F)(F)C(F)(F)C(F)(F)F [2H,2H,3H,3H-Perfluorooctanoic acid]; details: 2200 nM; in DMSO
Protocol: as §1

[5] = compound: O=S(=O)(O)CCC(F)(F)C(F)(F)C(F)(F)C(F)(F)C(F)(F)C(F)(F)F [6:2 Fluorotelomer sulfonic acid]; details: in DMSO
Protocol: as §1

[6] = compound: O=C(O)C(F)(F)C(F)(F)C(F)(F)C(F)(F)C(F)(F)C(F)(F)C(F)(F)C(F)(F)Cl [9-Chloro-perfluorononanoic acid]; details: in DMSO
Protocol: as §1

[7] = compound: NS(=O)(=O)C(F)(F)C(F)(F)C(F)(F)C(F)(F)C(F)(F)C(F)(F)F [Perfluorohexanesulfonamide]; details: 2200 nM; in DMSO
Protocol: as §1

Nonafluoropentanamide = compound: NC(=O)C(F)(F)C(F)(F)C(F)(F)C(F)(F)F [Nonafluoropentanamide]; details: 2200 nM; in DMSO
Protocol: as §1

[8] = compound: FC(F)(F)C(F)(F)C(F)(F)C(F)(F)C(F)(F)CCI [1-Iodo-1H,1H,2H,2H-perfluoroheptane]; details: 2200 nM; in DMSO
Protocol: as §1

[9] = compound: COC(=O)CCC(F)(F)C(F)(F)C(F)(F)C(F)(F)F [Methyl 2H,2H,3H,3H-perfluoroheptanoate]; details: 2200 nM; in DMSO
Protocol: as §1

[10] = compound: O=S(=O)(O)C(F)(F)C(F)(F)OC(F)(F)C(F)(F)F [Perfluoro(2-ethoxyethane)sulfonic acid]; details: 2200 nM; in DMSO
Protocol: as §1

Test System | level (log10) ([1]; 740 nM) | level (log10) ([1]; 2200 nM) | level (log10) ([1]; 6700 nM) | level (log10) ([1]; 20000 nM) | level (log10) [2] | level (log10) ([3]; 740 nM) | level (log10) ([3]; 2200 nM) | level (log10) (Perfluoropinacol; 2200 nM) | level (log10) (Perfluoropinacol; 6700 nM) | level (log10) (Perfluoropinacol; 20000 nM) | level (log10) (Tetrafluorosuccinic acid) | level (log10) (Octafluoroadipamide) | level (log10) [4] | level (log10) ([5]; 2200 nM) | level (log10) ([5]; 6700 nM) | level (log10) ([5]; 20000 nM) | level (log10) ([5]; 60000 nM) | level (log10) ([6]; 2200 nM) | level (log10) ([6]; 6700 nM) | level (log10) ([6]; 20000 nM) | level (log10) [7] | level (log10) (Nonafluoropentanamide) | level (log10) [8] | level (log10) [9] | level (log10) [10]
SAg:PBMC Cytotoxicity | 0.0235 ± 0.021 | 0 ± 0.034 | -0.0255 ± 0.018 | 0.0155 ± 0.013 | -0.006 ± 0.021 | 0.025 ± 0.0099 | -0.001 ± 0.033 | 0.0335 ± 0.08 | 0.046 ± 0.033 | 0.0855 ± 0.0021 | 0.0305 ± 0.052 | -0.0055 ± 0.029 | 0.021 ± 0.0071 | 0.04 ± 0.0057 | 0.0105 ± 0.00071 | 0 ± 0.0071 | 0.0305 ± 0.029 | 0.0155 ± 0.043 | 0.032 ± 0.028 | 0.0255 ± 0.032 | 0.007 ± 0.065 | 0 ± 0.0085 | -0.005 ± 0.035 | -0.0025 ± 0.013 | 0.027 ± 0.021
CASM3C:Serum Amyloid A | 0.0025 ± 0.08 | 0.005 ± 0.011 | -0.0325 ± 0.021 | 0.025 ± 0.0085 | -0.044 ± 0.071 | 0.026 ± 0.028 | -0.011 ± 0.0085 | 0.0195 ± 0.037 | 0.0545 ± 0.0078 | 0.0595 ± 0.015 | 0.0205 ± 0.046 | 0.001 ± 0.017 | 0.0155 ± 0.0021 | -0.0055 ± 0.028 | 0.019 ± 0.014 | 0.021 ± 0.03 | 0.017 ± 0.031 | -0.014 ± 0.0085 | 0.001 ± 0.016 | 0.0285 ± 0.011 | 0.0075 ± 0.012 | 0.029 ± 0.037 | 0.001 ± 0.05 | 0.0095 ± 0.025 | 0.004 ± 0.041
3C:CD141/Thrombomodulin | 0.034 ± 0.064 | 0.0275 ± 0.059 | 0.041 ± 0.033 | 0.005 ± 0.033 | -0.0145 ± 0.0078 | 0 ± 0.03 | -0.0125 ± 0.013 | -0.019 ± 0.02 | -0.0165 ± 0.0021 | -0.033 ± 0.034 | -0.0035 ± 0.019 | 0.0555 ± 0.073 | -0.005 ± 0.058 | 0.0055 ± 0.033 | -0.0065 ± 0.05 | -0.0475 ± 0.019 | -0.0415 ± 0.033 | 0.0025 ± 0.044 | -0.017 ± 0.016 | -0.008 ± 0.02 | -0.021 ± 0.041 | -0.0025 ± 0.028 | -0.0175 ± 0.0035 | -0.023 ± 0.023 | 0.0145 ± 0.018
KF3CT:TIMP-2 | -0.0225 ± 0.0078 | -0.035 ± 0.054 | -0.016 ± 0.03 | -0.041 ± 0.052 | -0.021 ± 0.0085 | -0.006 ± 0.055 | -0.005 ± 0.0014 | 0 ± 0.0085 | 0.013 ± 0.0085 | 0.0745 ± 0.0064 | 0.0225 ± 0.05 | 0.001 ± 0.028 | 0.0005 ± 0.0064 | -0.0065 ± 0.059 | -0.029 ± 0.0085 | -0.0035 ± 0.012 | 0.0015 ± 0.012 | -0.029 ± 0.041 | -0.0205 ± 0.0021 | -0.0015 ± 0.0021 | 0.001 ± 0.0042 | -0.005 ± 0.027 | -0.01 ± 0.014 | 0.0035 ± 0.049 | 0.008 ± 0.0099
CASM3C:Proliferation | -0.025 ± 0.0014 | -0.0105 ± 0.035 | -0.036 ± 0.0014 | -0.054 ± 0.071 | 0.0025 ± 0.026 | 0.025 ± 0.033 | -0.018 ± 0.018 | 0.002 ± 0.023 | -0.02 ± 0.013 | -0.122 ± 0.035 | -0.0225 ± 0.12 | -0.068 ± 0.057 | 0.01 ± 0.034 | 0 ± 0.085 | -0.0095 ± 0.029 | 0.024 ± 0.033 | 0.026 ± 0.018 | 0.0005 ± 0.025 | -0.016 ± 0.02 | 0.004 ± 0.025 | -0.0255 ± 0.025 | -0.0275 ± 0.005 | -0.011 ± 0.061 | -0.0285 ± 0.019 | 0.0055 ± 0.018
BE3C:SRB | 0.0025 ± 0.0035 | -0.005 ± 0.0099 | 0.009 ± 0.0099 | 0.0065 ± 0.016 | 0.008 ± 0.0057 | 0.0105 ± 0.011 | -0.0035 ± 0.0021 | 0.0105 ± 0.023 | -0.0115 ± 0.0035 | -0.0285 ± 0.00071 | 0.004 | 0.011 ± 0.021 | 0.014 ± 0.017 | 0.0115 ± 0.013 | -0.005 ± 0.0099 | -0.001 ± 0.0028 | 0.0055 ± 0.011 | 0.0135 ± 0.018 | -0.0045 ± 0.0064 | -0.0805 ± 0.005 | -0.0015 ± 0.0064 | 0 ± 0.0057 | -0.008 ± 0.0014 | 0.0005 ± 0.0021 | 0.014 ± 0.017
BT:PBMC Cytotoxicity | 0.041 | 0.023 ± 0.014 | 0.004 ± 0.0057 | 0.007 ± 0.021 | -0.012 ± 0.0071 | 0.009 ± 0.027 | -0.0065 ± 0.00071 | -0.005 ± 0.0028 | 0.011 ± 0.017 | -0.0095 ± 0.023 | -0.0245 ± 0.019 | 0.009 ± 0.0042 | 0.034 ± 0.021 | 0.0365 ± 0.03 | 0.007 | 0.0235 ± 0.0064 | 0.045 ± 0.0014 | 0.007 ± 0.024 | 0.015 ± 0.028 | 0.0355 ± 0.015 | 0.0415 ± 0.07 | 0.016 ± 0.018 | 0.0065 ± 0.061 | 0.0345 ± 0.011 | -0.0005 ± 0.029
LPS:CD142/Tissue Factor | 0.142 ± 0.039 | 0.0055 ± 0.0092 | 0.032 ± 0.014 | 0.006 ± 0.014 | -0.0175 ± 0.0078 | 0.03 ± 0.048 | 0.0135 ± 0.061 | -0.0385 ± 0.0092 | -0.0795 ± 0.0035 | -0.038 ± 0.02 | 0.039 ± 0.042 | -0.0295 ± 0.083 | 0.078 ± 0.0099 | 0.0385 ± 0.033 | -0.0015 ± 0.064 | 0.02 ± 0.0085 | 0.0275 ± 0.026 | 0.0135 ± 0.032 | 0.0165 ± 0.059 | 0.0375 ± 0.016 | -0.038 ± 0.0071 | 0.105 ± 0.037 | 0.009 ± 0.0042 | 0.005 ± 0.044 | 0.083 ± 0.057
MyoF:MMP-1 | -0.029 ± 0.013 | -0.062 ± 0.0014 | -0.023 ± 0.0057 | -0.0365 ± 0.074 | 0.0045 ± 0.08 | -0.0095 ± 0.073 | 0.0175 ± 0.026 | 0.0095 ± 0.013 | -0.0075 ± 0.012 | -0.027 ± 0.0042 | 0.0165 ± 0.11 | 0.0205 ± 0.1 | -0.015 ± 0.067 | -0.0105 ± 0.044 | -0.018 ± 0.021 | -0.058 ± 0.0042 | -0.0145 ± 0.047 | -0.0135 ± 0.061 | -0.028 ± 0.03 | -0.0585 ± 0.0064 | 0.0185 ± 0.079 | 0.0035 ± 0.046 | 0.0105 ± 0.03 | 0.0355 ± 0.087 | -0.0005 ± 0.018
BF4T:MMP-1 | -0.0205 ± 0.005 | -0.0125 ± 0.0035 | -0.0205 ± 0.0021 | -0.0095 ± 0.0021 | 0.004 ± 0.016 | 0 ± 0.018 | 0.002 ± 0.0042 | -0.0045 ± 0.00071 | -0.0245 ± 0.00071 | -0.0165 ± 0.0035 | 0.0185 ± 0.039 | 0.006 ± 0.027 | -0.0005 ± 0.012 | 0.0015 ± 0.019 | -0.0085 ± 0.00071 | -0.0125 ± 0.0078 | 0.0065 ± 0.013 | -0.023 ± 0.021 | -0.0115 ± 0.0078 | 0.0245 ± 0.0064 | -0.005 ± 0.0028 | 0.0025 ± 0.0078 | -0.0015 ± 0.00071 | 0.004 ± 0.02 | 0.003 ± 0.011
